Our source for the binding values is PMC10353998 (2023).

By UniProt entry, the sequences of proteins in these tests, tags left out.
UniProt P38159: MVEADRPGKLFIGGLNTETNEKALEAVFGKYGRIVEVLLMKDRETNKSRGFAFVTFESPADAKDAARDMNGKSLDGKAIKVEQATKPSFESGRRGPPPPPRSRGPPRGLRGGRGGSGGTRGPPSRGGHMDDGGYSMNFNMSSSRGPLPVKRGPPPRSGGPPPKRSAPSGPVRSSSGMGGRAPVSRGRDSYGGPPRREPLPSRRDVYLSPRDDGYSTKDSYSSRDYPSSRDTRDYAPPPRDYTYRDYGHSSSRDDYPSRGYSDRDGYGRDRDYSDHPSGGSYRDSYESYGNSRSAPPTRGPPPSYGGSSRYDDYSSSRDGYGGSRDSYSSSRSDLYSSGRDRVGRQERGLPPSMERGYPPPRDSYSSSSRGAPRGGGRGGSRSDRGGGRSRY

Assay [1] deals with T1, eGFP-GGSG-Flag-RBM20-P633L (human) (UniProt Q5T481).
T1 sequence: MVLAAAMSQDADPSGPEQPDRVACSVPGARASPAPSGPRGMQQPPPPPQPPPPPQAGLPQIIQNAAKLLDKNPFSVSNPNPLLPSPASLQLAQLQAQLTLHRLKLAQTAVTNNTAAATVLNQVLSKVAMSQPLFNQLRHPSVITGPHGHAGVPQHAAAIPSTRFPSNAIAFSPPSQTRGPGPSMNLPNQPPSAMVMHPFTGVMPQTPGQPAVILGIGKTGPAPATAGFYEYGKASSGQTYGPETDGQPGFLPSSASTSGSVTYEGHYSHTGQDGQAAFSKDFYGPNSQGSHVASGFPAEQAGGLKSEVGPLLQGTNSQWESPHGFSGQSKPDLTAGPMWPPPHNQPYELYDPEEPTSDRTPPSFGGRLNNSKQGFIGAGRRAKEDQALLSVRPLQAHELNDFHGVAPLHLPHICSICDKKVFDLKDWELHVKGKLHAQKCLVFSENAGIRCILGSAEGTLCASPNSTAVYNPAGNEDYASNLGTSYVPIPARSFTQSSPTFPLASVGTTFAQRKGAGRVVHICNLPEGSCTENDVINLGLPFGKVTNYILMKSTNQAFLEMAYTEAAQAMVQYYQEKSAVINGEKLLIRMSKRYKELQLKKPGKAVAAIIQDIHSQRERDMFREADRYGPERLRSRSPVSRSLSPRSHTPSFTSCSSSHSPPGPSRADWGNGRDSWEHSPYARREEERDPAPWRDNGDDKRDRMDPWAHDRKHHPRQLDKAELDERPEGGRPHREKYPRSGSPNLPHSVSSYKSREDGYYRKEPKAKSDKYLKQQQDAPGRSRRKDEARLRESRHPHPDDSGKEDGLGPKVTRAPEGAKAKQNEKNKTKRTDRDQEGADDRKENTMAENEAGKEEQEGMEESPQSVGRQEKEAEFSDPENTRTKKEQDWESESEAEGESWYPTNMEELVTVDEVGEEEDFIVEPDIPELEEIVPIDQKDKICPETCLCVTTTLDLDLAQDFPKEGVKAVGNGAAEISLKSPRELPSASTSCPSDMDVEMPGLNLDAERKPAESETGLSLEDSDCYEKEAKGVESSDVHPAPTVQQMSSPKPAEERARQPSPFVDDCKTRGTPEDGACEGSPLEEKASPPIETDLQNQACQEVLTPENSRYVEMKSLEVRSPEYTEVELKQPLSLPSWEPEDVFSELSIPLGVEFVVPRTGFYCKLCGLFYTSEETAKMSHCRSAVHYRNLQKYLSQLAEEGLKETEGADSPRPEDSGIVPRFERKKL
The assay can be described thus: affinity purification with mass spectrometry; GFP-Trap magnetic particles, 1 mg of nuclear and insoluble fraction of HeLa expressing eGFP-RBM20 (WT, P633L, R634Q, RSS), 4 °C 3 h; washes with 150 mM NaCl, 0.1% NP-40; TMT LC-MS/MS; hits against a no-bait control.

Assay [2] deals with T2, eGFP-GGSG-Flag-RBM20-R634Q (human) (UniProt Q5T481).
T2 sequence: T1 sequence with L633P, R634Q
The assay is described as above.

Changes are numbered by the printed parent chain. Results are given in words; binding and its absence hold for the method and conditions named. Binding seen in cells or lysates may run through a third protein. These calls come from enrichment with a bait or labelling near it, and not all partners need be listed. Sequences can lack the tags named with a protein.

Regarding RBMX (from UniProt P38159 1-391), the binding result in assay [1] and in assay [2] was “binds” in each case.

B1: RBM14 (protein, UniProt Q96PK6 1-669)
chain: MKIFVGNVDGADTTPEELAALFAPYGTVMSCAVMKQFAFVHMRENAGALRAIEALHGHELRPGRALVVEMSRPRPLNTWKIFVGNVSAACTSQELRSLFERRGRVIECDVVKDYAFVHMEKEADAKAAIAQLNGKEVKGKRINVELSTKGQKKGPGLAVQSGDKTKKPGAGDTAFPGTGGFSATFDYQQAFGNSTGGFDGQARQPTPPFFGRDRSPLRRSPPRASYVAPLTAQPATYRAQPSVSLGAAYRAQPSASLGVGYRTQPMTAQAASYRAQPSVSLGAPYRGQLASPSSQSAAASSLGPYGGAQPSASALSSYGGQAAAASSLNSYGAQGSSLASYGNQPSSYGAQAASSYGVRAAASSYNTQGAASSLGSYGAQAASYGAQSAASSLAYGAQAASYNAQPSASYNAQSAPYAAQQAASYSSQPAAYVAQPATAAAYASQPAAYAAQATTPMAGSYGAQPVVQTQLNSYGAQASMGLSGSYGAQSAAAATGSYGAAAAYGAQPSATLAAPYRTQSSASLAASYAAQQHPQAAASYRGQPGNAYDGAGQPSAAYLSMSQGAVANANSTPPPYERTRLSPPRASYDDPYKKAVAMSKRYGSDRRLAELSDYRRLSESQLSFRRSPTKSSLDYRRLPDAHSDYARYSGSYNDYLRAAQMHSGYQRRM
In the case of B1, the binding entry in assay [1] and in assay [2] was “binds” in each case.

B2: RBM15 (protein, UniProt Q96T37 1-977)
chain: MRTAGRDPVPRRSPRWRRAVPLCETSAGRRVTQLRGDDLRRPATMKGKERSPVKAKRSRGGEDSTSRGERSKKLGGSGGSNGSSSGKTDSGGGSRRSLHLDKSSSRGGSREYDTGGGSSSSRLHSYSSPSTKNSSGGGESRSSSRGGGGESRSSGAASSAPGGGDGAEYKTLKISELGSQLSDEAVEDGLFHEFKRFGDVSVKISHLSGSGSGDERVAFVNFRRPEDARAAKHARGRLVLYDRPLKIEAVYVSRRRSRSPLDKDTYPPSASVVGASVGGHRHPPGGGGGQRSLSPGGAALGYRDYRLQQLALGRLPPPPPPPLPRDLERERDYPFYERVRPAYSLEPRVGAGAGAAPFREVDEISPEDDQRANRTLFLGNLDITVTESDLRRAFDRFGVITEVDIKRPSRGQTSTYGFLKFENLDMSHRAKLAMSGKIIIRNPIKIGYGKATPTTRLWVGGLGPWVPLAALAREFDRFGTIRTIDYRKGDSWAYIQYESLDAAHAAWTHMRGFPLGGPDRRLRVDFADTEHRYQQQYLQPLPLTHYELVTDAFGHRAPDPLRGARDRTPPLLYRDRDRDLYPDSDWVPPPPPVRERSTRTAATSVPAYEPLDSLDRRRDGWSLDRDRGDRDLPSSRDQPRKRRLPEESGGRHLDRSPESDRPRKRHCAPSPDRSPELSSSRDRYNSDNDRSSRLLLERPSPIRDRRGSLEKSQGDKRDRKNSASAERDRKHRTTAPTEGKSPLKKEDRSDGSAPSTSTASSKLKSPSQKQDGGTAPVASASPKLCLAWQGMLLLKNSNFPSNMHLLQGDLQVASSLLVEGSTGGKVAQLKITQRLRLDQPKLDEVTRRIKVAGPNGYAILLAVPGSSDSRSSSSSAASDTATSTQRPLRNLVSYLKQKQAAGVISLPVGGNKDKENTGVLHAFPPCEFSQQFLDSPAKALAKSEEDYLVMIIVRGFGFQIGVRYENKKRENLALTLL
With B2, the binding entry in assay [1] and in assay [2] was “binds” throughout.
